Test results as given in the supplement of paper PMC7125110.
± gives the standard error. Many of these values have a large error.

B1: glmS ribozyme (parent)
chain: AUAAAAGCGCCAGAACUACAGAAAUGUAGUUGACGAGGAGGAGGUUUAUCGAAUUUUCGGCGGAUGCCUCCAAA

Variants of: B1
Assay: kcat; higher = faster cleavage; RNA array
Settings: with glucosamine-6-phosphate
How it was run: (§1)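 Glucosamine-6-phosphate in HEPES/KCl/Mg(OAc)2 buffer, at 40 μM to 10 mM, was flowed over barcoded ribozyme variants transcribed in situ by E. coli RNA polymerase on sequenced MiSeq chips. Tracking was through a hybridised Cy3 probe at 37 °C. kobs, kcat and KM came from exponential decay fits and weighted Michaelis–Menten fits of normalised per-tile medians.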

Variant	kcat
G38U C70G	2.81e-05 ± 2.5e-05 s⁻¹
A39G C71A	0.00428 ± 0.0022 s⁻¹
A39G G44A	0.00175 ± 0.0015 s⁻¹
A39G U47G	0.00329 ± 0.0028 s⁻¹
A39U A64C	0.000269 ± 4.6e-05 s⁻¹
A39U C70U	0.00771 ± 0.0044 s⁻¹
G40A U47G	0.00264 ± 0.0015 s⁻¹
G40U U45C	0.000451 ± 0.00023 s⁻¹
G40U U49G	8.53e-05 ± 3.1e-05 s⁻¹
G41A A53G	0.00248 ± 0.0013 s⁻¹
G41A A64G	0.00209 ± 0.00064 s⁻¹
G41C C67U C70A	5.68e-05 ± 1.2e-05 s⁻¹
G41U A42C	1.89e-05 ± 1.4e-06 s⁻¹
A42C U69A	0.000329 ± 0.00019 s⁻¹
A42G A48U	0.00077 ± 0.00015 s⁻¹
A42G A64G C71G	0.00118 ± 0.001 s⁻¹
A42G C50G A64G	2.35e-05 ± 1.7e-05 s⁻¹
A42G C71A	0.00565 ± 0.003 s⁻¹
G43A U55A	0.00026 ± 7.6e-05 s⁻¹
G44U U45A	0.000658 ± 0.00016 s⁻¹
U45C A53U	0.0028 ± 0.0008 s⁻¹
U45C A53U U69C	0.00154 ± 0.00089 s⁻¹
U45G G66C	0.00999 ± 0.0066 s⁻¹
U46A G66A	0.000792 ± 5.9e-05 s⁻¹
U46G A48G	7.99e-05 ± 1e-06 s⁻¹
U46G A53U	0.006 ± 0.0013 s⁻¹
U47A C61A C70G C71U	1.64e-05 ± 4.7e-06 s⁻¹

Variant	kcat
U47A U54C	0.0296 ± 0.024 s⁻¹
U47A U55A	0.00879 ± 0.0045 s⁻¹
U47A U55G	0.0201 ± 0.01 s⁻¹
U47G C61A	1.29e-05 ± 9.1e-06 s⁻¹
U47G U57G	6.2e-05 ± 9.2e-06 s⁻¹
A48G G59A	5.08e-05 ± 1.8e-05 s⁻¹
A48U C71A	0.000129 ± 1.2e-05 s⁻¹
U49C C70A	< 1e-05 s⁻¹
U49G U69A	4.14e-05 ± 1.7e-05 s⁻¹
C50A C61G C68G	3.41e-05 ± 1.4e-05 s⁻¹
C50A C71A	1.53e-05 ± 3.9e-06 s⁻¹
C50G G51A G59U C70G	0.000102 ± 2.5e-05 s⁻¹
C50G U55A	4.09e-05 ± 2.9e-05 s⁻¹
C50U A52G	1.11e-05 ± 2.8e-06 s⁻¹
C50U G59U	< 1e-05 s⁻¹
G51C C68A	< 1e-05 s⁻¹
G51U C70A	2.43e-05 ± 1.5e-05 s⁻¹
A52C C71U	1.4e-05 ± 5.1e-07 s⁻¹
A52G C61U C68G	6.09e-05 ± 4.1e-05 s⁻¹
A52U U56G	0.000175 ± 4.1e-05 s⁻¹
A53C G66U	0.000484 ± 6.4e-05 s⁻¹
A53G C67A	0.000661 ± 0.0004 s⁻¹
A53G U54C	0.0163 ± 0.0094 s⁻¹
A53U C70U	0.00457 ± 0.004 s⁻¹
A53U U65A	0.005 ± 0.0043 s⁻¹
U54A C67U	0.00845 ± 0.0047 s⁻¹

Reprinted from the results shown for reference:
Variant	kcat
U47A U54C	0.0296 ± 0.024 s⁻¹
U47A U55A	0.00879 ± 0.0045 s⁻¹
U47A U55G	0.0201 ± 0.01 s⁻¹
U47G C61A	1.29e-05 ± 9.1e-06 s⁻¹
U47G U57G	6.2e-05 ± 9.2e-06 s⁻¹
A48G G59A	5.08e-05 ± 1.8e-05 s⁻¹
A48U C71A	0.000129 ± 1.2e-05 s⁻¹
U49C C70A	< 1e-05 s⁻¹
U49G U69A	4.14e-05 ± 1.7e-05 s⁻¹
C50A C61G C68G	3.41e-05 ± 1.4e-05 s⁻¹
C50A C71A	1.53e-05 ± 3.9e-06 s⁻¹
C50G G51A G59U C70G	0.000102 ± 2.5e-05 s⁻¹
C50G U55A	4.09e-05 ± 2.9e-05 s⁻¹
C50U A52G	1.11e-05 ± 2.8e-06 s⁻¹
C50U G59U	< 1e-05 s⁻¹
G51C C68A	< 1e-05 s⁻¹
G51U C70A	2.43e-05 ± 1.5e-05 s⁻¹
A52C C71U	1.4e-05 ± 5.1e-07 s⁻¹
A52G C61U C68G	6.09e-05 ± 4.1e-05 s⁻¹
A52U U56G	0.000175 ± 4.1e-05 s⁻¹
A53C G66U	0.000484 ± 6.4e-05 s⁻¹
A53G C67A	0.000661 ± 0.0004 s⁻¹
A53G U54C	0.0163 ± 0.0094 s⁻¹
A53U C70U	0.00457 ± 0.004 s⁻¹
A53U U65A	0.005 ± 0.0043 s⁻¹
U54A C67U	0.00845 ± 0.0047 s⁻¹

Single entries from the results shown:
C50A C61G C68G | kcat: 3.41e-05 ± 1.4e-05 s⁻¹
U47A U55A | kcat: 0.00879 ± 0.0045 s⁻¹

Variants of: B1
Assay: self-cleavage kobs at 2500 uM GlcN6P; higher = faster cleavage; RNA array
Settings: with glucosamine-6-phosphate
How it was run: as §1

Variant	self-cleavage kobs at 2500 uM GlcN6P
G38U C70G	0.000507 ± 0.00034 s⁻¹
G43A U55A	3.01e-05 ± 3e-05 s⁻¹
A52G C61U C68G	3.79e-05 ± 1.9e-05 s⁻¹
A53G U54C	0.004 ± 0.0032 s⁻¹

Variants of: B1
Assay: self-cleavage kobs at 10000 uM GlcN6P; higher = faster cleavage; RNA array
Settings: with glucosamine-6-phosphate
How it was run: as §1

Variant	self-cleavage kobs at 10000 uM GlcN6P
G38U C70G	2.27e-05 ± 1.2e-05 s⁻¹
G41U A42C	1.48e-05 ± 1.1e-05 s⁻¹
U47A U54C	0.0222 ± 0.018 s⁻¹
A48G G59A	3.55e-05 ± 1.9e-05 s⁻¹
U49G U69A	2.18e-05 ± 1.5e-05 s⁻¹
C50G U55A	2.01e-05 ± 1.8e-05 s⁻¹
A52C C71U	1.21e-05 ± 7.8e-06 s⁻¹

Variants of: B1
Assay: KM; higher = weaker cofactor use; RNA array
Settings: with glucosamine-6-phosphate
How it was run: as §1

Variant	KM
A39G C71A	724 ± 580 µM
A39U A64C	3410 ± 1100 µM
A39U C70U	384 ± 290 µM
G40A U47G	3210 ± 2600 µM
G41A A53G	1200 ± 1100 µM
G41A A64G	5950 ± 2800 µM
G41C C67U C70A	9730 ± 3700 µM
G41U A42C	2750 ± 590 µM
A42G A48U	3220 ± 1100 µM
A42G C71A	1010 ± 810 µM
G43A U55A	21600 ± 9100 µM
G44U U45A	1820 ± 740 µM
U45C A53U	4320 ± 1700 µM
U45C A53U U69C	2200 ± 1600 µM
U45G G66C	17700 ± 16000 µM
U46A G66A	2830 ± 440 µM
U46G A48G	1250 ± 69 µM
U46G A53U	2190 ± 770 µM
U47A U54C	2860 ± 2700 µM
U47A U55A	701 ± 480 µM
U47A U55G	2570 ± 1800 µM
A48U C71A	1380 ± 540 µM
C50U G59U	71.2 ± 32 µM
A52C C71U	1650 ± 280 µM
A52U U56G	5090 ± 2000 µM
A53C G66U	1770 ± 450 µM
A53G U54C	1810 ± 1300 µM
U54A C67U	3580 ± 2800 µM

Variants of: B1
Assay: self-cleavage kobs at 160 uM GlcN6P; higher = faster cleavage; RNA array
Settings: with glucosamine-6-phosphate
How it was run: as §1

Variant	self-cleavage kobs at 160 uM GlcN6P
A39G G44A	2.76e-05 ± 1.8e-05 s⁻¹
A42G A64G C71G	3.57e-05 ± 2e-05 s⁻¹
G44U U45A	3.57e-05 ± 2.4e-05 s⁻¹
U46A G66A	4.24e-05 ± 2.5e-05 s⁻¹
C50A C71A	1.81e-05 ± 1.3e-05 s⁻¹
G51U C70A	1.71e-05 ± 1.5e-05 s⁻¹
A53G C67A	0.000298 ± 0.00015 s⁻¹

Variants of: B1
Assay: self-cleavage kobs at 640 uM GlcN6P; higher = faster cleavage; RNA array
Settings: with glucosamine-6-phosphate
How it was run: as §1

Variant	self-cleavage kobs at 640 uM GlcN6P
G41A A64G	0.000127 ± 6.4e-05 s⁻¹
U46G A48G	2.63e-05 ± 1.6e-05 s⁻¹
A48U C71A	3.02e-05 ± 2.1e-05 s⁻¹
U49G U69A	4.02e-05 ± 2.4e-05 s⁻¹
C50G U55A	2.6e-05 ± 1.9e-05 s⁻¹

Variants of: B1
Assay: self-cleavage kobs at 40 uM GlcN6P; higher = faster cleavage; RNA array
Settings: with glucosamine-6-phosphate
How it was run: as §1

Variant	self-cleavage kobs at 40 uM GlcN6P
A42C U69A	2.42e-05 ± 1.6e-05 s⁻¹
U45G G66C	3.82e-05 ± 2.3e-05 s⁻¹
C50G G51A G59U C70G	2.96e-05 ± 2.1e-05 s⁻¹
C50G U55A	2.16e-05 ± 2.1e-05 s⁻¹
A53C G66U	1.68e-05 ± 1.2e-05 s⁻¹
